No constants are given. Whether binding was seen depends on the method and setting. Binding seen in cells or lysates may run through a third protein. Some entries that bind do so weakly or less than the wild type.
Target: Flag-tagged ERK2 (UniProt P28482)
Test: co-IP; HEK293T cells co-transfected with GFP-transgelin-2 (wild-type or 29–31 aa truncated) and Flag-ERK2 for 48 h; immunoprecipitation by anti-Flag antibody, blot with anti-GFP antibody

Amino acid sequences for entries named in this document (tags omitted).
UniProt P28482: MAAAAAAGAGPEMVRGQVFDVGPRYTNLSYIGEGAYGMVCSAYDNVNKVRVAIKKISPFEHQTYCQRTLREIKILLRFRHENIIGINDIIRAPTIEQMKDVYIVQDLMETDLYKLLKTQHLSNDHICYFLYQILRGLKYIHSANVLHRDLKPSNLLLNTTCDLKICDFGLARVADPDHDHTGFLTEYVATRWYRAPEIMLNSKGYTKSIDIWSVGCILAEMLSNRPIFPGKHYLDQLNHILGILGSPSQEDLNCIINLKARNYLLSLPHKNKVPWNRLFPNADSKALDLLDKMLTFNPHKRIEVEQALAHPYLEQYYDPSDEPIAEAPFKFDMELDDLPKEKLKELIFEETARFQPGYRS
UniProt P37802: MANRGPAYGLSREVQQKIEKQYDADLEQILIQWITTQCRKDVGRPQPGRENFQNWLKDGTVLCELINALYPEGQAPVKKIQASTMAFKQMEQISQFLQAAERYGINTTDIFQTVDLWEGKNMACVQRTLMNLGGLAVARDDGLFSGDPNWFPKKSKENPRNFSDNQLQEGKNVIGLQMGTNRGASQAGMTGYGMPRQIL

## GFP-tagged transgelin-2, wild-type (from UniProt P37802 1-199)
  binding: binds
